The values that follow come from PubChem BioAssay AID1347426 (Functional Genomics Laboratory (NCATS/FGL), 2020).

The campaign covered roughly 31,000 sequences. About 1,400 (4.5%) were called active.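 Rule for the calls: active = median seed-adjusted z-score above 1 or below -1; inactive = the rest.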 This is one part of the list.

The assay can be described thus: Novel Modifiers of Survival Motor Neuron (SMN) Protein: Gene Identification via Genome-wide siRNA Screen.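 Note: luminescence tracks full-length SMN protein made from the SMN2 reporter.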 To be noted: HEK293T SMN2-luciferase reporter, siRNA knockdown, 72 h; actives lie on both sides. An outline of the steps:
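HEK293T cells stably carrying an SMN2 promoter/splicing cassette–luciferase reporter were reverse-transfected with 1 pmol siRNA per well (druggable-genome library, 3 siRNAs per gene) and grown 72 h at 37 °C. Luminescence, normalized to negative-control siRNA and log10-transformed, was scored as MAD.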
Take GGAUGGGCAUGUUGAGAGATT against NUDT9: the median seed-adjusted z-score is inactive: 0.277.
For GGUUUGGGAUGGGAAUUGATT against SUPT16H, the median seed-adjusted z-score is active: 1.2.
Turning to GAAGUAACACUGAAUAAUATT against FCRL5, the median seed-adjusted z-score was inactive: -0.138.
AGAUGAGGCUCUUUCUGAUTT against TXNDC6: the median seed-adjusted z-score is inactive: 0.156.
Take GCUUGACCCUUAGACGGAATT against LILRB3: the median seed-adjusted z-score is inactive: 0.0304.
Turning to AGAGGACCCAGAAACUUGATT against DNAJC17, the median seed-adjusted z-score is inactive: 0.751.
With CACCUAGAGUACGAAAACATT against CHD8, the median seed-adjusted z-score was inactive: -0.158.
Regarding GGAAUUCACCAAUGAGACATT against SLC2A11, the median seed-adjusted z-score was inactive: 0.
Consider GCUUCUUCCAGAUAUCAGATT against ZSCAN4, for which the median seed-adjusted z-score is inactive: 0.617.
Consider GCUCGUAUAGUUUACAUCATT against GOT1L1, for which the median seed-adjusted z-score was inactive: -0.277.
Regarding GCCUUUUACGCAAACAUGUTT against P2RY8, the median seed-adjusted z-score was inactive: -0.136.
For CAGCAUCGCGCAGAACAAATT against VAV2, the median seed-adjusted z-score is inactive: 0.975.
On to CACUGGGACUAAUAGUUUUTT against COQ2, for which the median seed-adjusted z-score is inactive: -0.0121.
With CGCAUCUCUUAAUCAACAATT against DZIP3, the median seed-adjusted z-score is inactive: 0.435.
Consider CCCAAUAACUCUGUCGAUATT against ATP11C, for which the median seed-adjusted z-score was inactive: 0.102.
GGUCUUUACUGGAUUCAGATT against SERINC3: the median seed-adjusted z-score is inactive: 0.29.
For GAAUCAUGGAGAGUGCAAATT against PPM1E the value was inactive: -0.00802; for GGAUGAUCAUGAGCGGCAATT against PHKG1, inactive: -0.153.
GUAACACCGUUGAAGCUAATT against E2F8: the median seed-adjusted z-score was inactive: 0.209.
Consider GGCAAUUGAUCAAACCGGATT against EMR2, for which the median seed-adjusted z-score is inactive: 0.0569.
Consider GCGAAGAUCUUGCUCUACATT against CEP135, for which the median seed-adjusted z-score is inactive: -0.2.
Consider CCUCAGCAGUGCGCAAUCATT against PHF1, for which the median seed-adjusted z-score was inactive: -0.196.
For the sequence GGGACUACGUCAACAAGGATT against MAN2A2, the median seed-adjusted z-score is inactive: -0.0938.
As for CUCUUACCAUGGCCAGGCATT against KRTAP5-1, the median seed-adjusted z-score is inactive: 0.
Consider GAGCUUCCGUGUUAGAUCATT against ZNF221, for which the median seed-adjusted z-score is inactive: -0.536.
Consider CGCGUUGAAUGAGAACAUATT against PANK1, for which the median seed-adjusted z-score was inactive: -0.329.
For CGCUGACUCUGUAAGAUGATT against RAX2 the value was inactive: 0.345; for CUGUGGAAAAGAUACCGUATT against EEFSEC, inactive: -0.000421; for ACAGCUACGAGAUGCGAAATT against CAPN3, inactive: 0.0426.
As for GCAUAACUCGAAACACCUUTT against POLR2J, the median seed-adjusted z-score is inactive: 0.0437.
In the case of CAAGAGUAUUUAACUAGCATT against SMARCC1, the median seed-adjusted z-score is inactive: -0.0304.
Take GGAUAAUGUUCGUUGCUCATT against CD5L: the median seed-adjusted z-score was inactive: 0.
For GACUGAAGCUUCGUUAGUATT against POLG2, the median seed-adjusted z-score is inactive: 0.
For the sequence GCCUCCCAGAUGAUCGUCATT against SLC6A13, the median seed-adjusted z-score was inactive: 0.267.
For GCAUCAACGGCAUCUGUAATT against ADAMTS7 the value was inactive: 0.146.
The figure for CUACCUACAUCGGCCUUAATT against SMPD1 is inactive: 0.353.
With GCUACUCCCUGAUUCAGAATT against SLC2A7, the median seed-adjusted z-score was inactive: -0.0337.
Consider GCAUAGCUGUCCAAGUUAATT against UBA6, for which the median seed-adjusted z-score is inactive: 0.0251.
Turning to GAGAUUAUCGGAUACGGUUTT against PPFIA2, the median seed-adjusted z-score was inactive: 0.176.
For UGGGCAACAUCUACACGCATT against PAQR4, the median seed-adjusted z-score is inactive: 0.316.
Take CCCAGUCAAUCAAAGGAAATT against CD3G: the median seed-adjusted z-score is inactive: -0.0274.
With CAUCCAUGGUUAAGUCAUATT against PTK6, the median seed-adjusted z-score is inactive: -0.295.
On to CCAAGGUUCAGUUCUUAAATT against CHI3L2, for which the median seed-adjusted z-score is inactive: 0.374.
For the sequence GGACCUCGAUGACUUUAGATT against PRDM1, the median seed-adjusted z-score is inactive: -0.16.
Take CAAGCAAACGGAAGACCCATT against LTBR: the median seed-adjusted z-score is inactive: 0.
For GCCUGAAUUCCACUGCGGATT against TNFRSF18 the value was inactive: 0.154; for GGAUAUCACAGGACAAGGATT against ZAK, inactive: -0.113.
GCUCUUUGUUCAAUGCCUATT against CHRAC1: the median seed-adjusted z-score is inactive: 0.193.
As to GGAAUAUGCCUGCCUGAAATT against NR0B2, the median seed-adjusted z-score is inactive: -0.374.
In the case of GAACCAAGUUUGAGACGGATT against KRT19, the median seed-adjusted z-score was inactive: 0.0661.
With CCACCACUGUCAGUGACGATT against EIF3G, the median seed-adjusted z-score was inactive: -0.198.
For CAACCUCACUGACCGGCAATT against HOXD11 the value was inactive: -0.185; for CCCUAAAGAUCCAACUGAATT against RASGRP1, inactive: -0.392.
GACUUGUGAUCAGUGUAAATT against BNC2: the median seed-adjusted z-score was inactive: -0.0556.
As to GGAGCUGAGGAAUUGCGAATT against HSD17B2, the median seed-adjusted z-score is inactive: 0.521.
Take GGUUCAGUCAACUUCUUCATT against ANGPTL6: the median seed-adjusted z-score is inactive: 0.
Consider CCUCUGUCCUGACCGAGAATT against HBZ, for which the median seed-adjusted z-score is inactive: -0.0054.
As to CACUUAUGCUGCAAUAUAUTT against TRIM49, the median seed-adjusted z-score is inactive: 0.0648.
Regarding GGAGGUCAAUUUGAACGCATT against DDX21, the median seed-adjusted z-score was inactive: -0.251.
In the case of GUUUCUUGAUUGGACAAAATT against LDHAL6B, the median seed-adjusted z-score was inactive: -0.192.
Turning to GAAUACACGGAAUCGAUUUTT against ARHGAP10, the median seed-adjusted z-score was inactive: -0.458.
As for GGCAGAAUCAUGAAUGUCATT against ATP5B, the median seed-adjusted z-score was inactive: 0.393.
For GCAAGGAGCUAGAGCCUUUTT against MOBKL2B the value was inactive: -0.613; for GCAAUAUUGUUCAACAGCATT against USP48, inactive: 0.397; for AGAUCAGGAUGAUCGAGAATT against BGN, inactive: 0.376.
In the case of CGACAUCUCACUCAUGAAATT against SF3A3, the median seed-adjusted z-score is active: -2.1.
Consider AGUGUAAGGUUUGUCCGAATT against ZSCAN22, for which the median seed-adjusted z-score was inactive: 0.277.
AGAUCAACCUGCUUCCCGATT against PDK2: the median seed-adjusted z-score is inactive: -0.481.
For GCAUACAGACUGACUCCUATT against EIF3H the value was inactive: 0.449; for GCCGAUAACUUUGAAUACATT against PGM1, inactive: 0.136; for GCAGCUUCCUCCUCGAGUATT against SNX18, inactive: 0.
Regarding GAAAAUCACCAAAACAUACTT against WHSC1, the median seed-adjusted z-score was active: 1.17.
Turning to CGUGAACCCAAAGUAUAUUTT against LOXL1, the median seed-adjusted z-score was inactive: 0.0435.
With CUCACUUCGGACUCACUUATT against FOXO3, the median seed-adjusted z-score was inactive: -0.712.
With GCACGACUUUGUACUCAGATT against HES5, the median seed-adjusted z-score is inactive: -0.00853.
For the sequence GGAGAAUUCGUGUUGCAAATT against PLXNC1, the median seed-adjusted z-score is inactive: -0.0792.
With GGGCAAAGCGAAACGCAAATT against ZNF536, the median seed-adjusted z-score is inactive: -0.295.
For the sequence GAGUCAGGAUUCUACCAGATT against PCDHGA12, the median seed-adjusted z-score was inactive: 0.561.
Turning to CCACGUCUCCAUUUCUUUATT against TUBB, the median seed-adjusted z-score is inactive: -0.307.
For GACUCCUACAUGUCCAUUATT against DNM3 the value was inactive: 0; for CGUAUAUGGUGGAGCAUGATT against WNK2, inactive: 0.212; for GACCUUCGAUGAACCGGAATT against GRAP2, inactive: 0.296.
On to UGAUAAGGAUGGUCCAGAUTT against FOXR1, for which the median seed-adjusted z-score was inactive: -0.153.
For CAAAAGAGCUUACAAUUCATT against PSTPIP2, the median seed-adjusted z-score is inactive: 0.0136.
Take CAAUCCUGUAUCUACCGUATT against OVCH1: the median seed-adjusted z-score is inactive: 0.0211.
CCAGAAAUCUUCCACAGAATT against TOP3A: the median seed-adjusted z-score is inactive: 0.474.
For CACUUUCCGGCAUAACUUUTT against MAL the value was inactive: 0.0733; for GGAAAUUGUUCAGCGAUUATT against SIPA1L2, inactive: -0.573.
As for GCUUGAGGCACAUAACAAATT against ZNF385A, the median seed-adjusted z-score is inactive: -0.968.
Turning to AGACAGACCGCCAAAUAAATT against KLF1, the median seed-adjusted z-score was inactive: 0.
Regarding CGGGUACUGCUACACCUUUTT against SLC22A8, the median seed-adjusted z-score was inactive: 0.175.
The figure for AGAAGUACGUGACCGAGUATT against PRDM15 is inactive: 0.258; for GGCCUGAACAAGAACAUCATT against CNTF it is inactive: 0.3.
For CGGAUUUCUUUGAACUAUUTT against TCERG1, the median seed-adjusted z-score is inactive: 0.415.
The figure for GAGUGAUCUUUCUAGCAAATT against KTN1 is inactive: -0.233; for CCCAGAUUGCAUACUCUAATT against ACP5 it is inactive: 0.353; for GGUGAAGGUAGAUCAAAGATT against EIF2AK2 it is inactive: 0.419.
For the sequence CGAACGUGCUUUUUCUCAATT against SULT4A1, the median seed-adjusted z-score was inactive: -0.0628.
With CGAGACGUAUUAUAUCUUUTT against COL4A3BP, the median seed-adjusted z-score is inactive: 0.0391.
As to CCGAUUCGGUCACCAAGUATT against MYO1F, the median seed-adjusted z-score was inactive: 0.103.
GGUUUUAGACAAUUACUUATT against CLIC1: the median seed-adjusted z-score was inactive: 0.288.
The figure for AGACCUUCGUGGAAAAAUATT against CDC37 is inactive: 0.
The figure for GCAUGUGAGCGUUUCCCUATT against ITGB1BP3 is inactive: 0.0514; for UGGGCCUGCUAGUCUGUCATT against TSPO it is inactive: -0.206.
For GCUAACCACUUGGAAGAUATT against PRMT7, the median seed-adjusted z-score is inactive: 0.204.
The figure for GAACCGUGGAGAAAGCAAATT against ALDH1B1 is inactive: 0.105; for GAUGGAAAGCGAAAAAGAATT against THRA it is inactive: 0.13.
